“Also recorded” adds a separate entry of the source. At least one compound was matched to its structure with a doubt left.
Legend:
[1] = test system: Otsuka Long-Evans Tokushima Fatty (OLETF) rats; test: Liver weight ratio and liver lipid contents in OLETF rats; type: in vivo, rat; details: versus control-diet OLETF rats, FIG. 10
Method: Immediately after the extraction of all the blood, the liver was quickly removed from all the rats in each group, and the wet weight of each liver was measured. The liver weight ratio of each rat is shown in terms of the liver weight per unit of body weight (100 g) at the time of removal. Extraction of lipid from each liver was performed in accordance with the method described in “A simple method for the isolation and purification of total lipids from animal tissues” (Folch and two other members, Journal of Biological Chemistry, vol. 226, p 497-509, 1957). A part of the lower layer of the liquid liver extract (the chloroform-containing layer) was separated, and the chloroform contained therein was evaporated under nitrogen gas current. The liquid with the chloroform removed was used as a sample for measuring liver lipid contents. The cholesterol, phospholipid, and triglyceride contents in the liver were enzymatically measured with commercial kits (Cholesterol E-Test Wako, Phospholipid C-Test Wako, and Triglyceride E-Test Wako; products of Wako Pure Chemical Industries, Ltd.), respectively.

[2] = Body weight and food intake of OLETF rats; type: in vivo, rat; details: versus control-diet OLETF rats
Source text: The rats that were the subjects of the experiment were divided into three groups: a Control group to be fed a control diet, a Hercampuri group to be fed a Hercampuri-enriched diet, and an Acarbose group to be fed an Acarbose-enriched diet. […] This control diet was purified animal feed containing casein as the source of protein. The Hercampuri-enriched diet fed to the rats in the Hercampuri group was produced by adding Hercampuri extract powder at a mixing ratio of 2% to the control diet. The Acarbose-enriched diet fed to the rats in the Acarbose group was produced by adding Acarbose (product of Bayer AG) at a mixing ratio of 0.2% to the control diet. For each experimental diet, the amount of the added subject ingredient was compensated for by adjusting the amount of corn starch. Male OLETF rats and LETO rats delivered from Tokushima Research Institute of Otsuka Pharmaceutical Co., Ltd. were used as the subject animals. Each one of these OLETF rats and LETO rats was born during the period of June 10th to June 13th in 2002. […] The rats had free access to feed (CE-2: product of Clea Japan, Inc.) and drinking water (tap water). […] During the experiment, the body weights and the amounts of food intake were measured every other day. […]

[3] = test system: Otsuka Long-Evans Tokushima Fatty (OLETF) rats; test: Serum and lipoprotein fraction cholesterol, phospholipid, triglyceride in OLETF rats; type: in vivo, rat
Method: Six week after the initiation of the experiment, without prior abstinence from feed, each rat was anesthetized by administering approximately 50 mg/kg of pentobarbital sodium (product of Dainippon Pharmaceutical Co., Ltd.) into the abdominal cavity to remove all of its blood via the abdominal aorta with an injection syringe. This operation was performed during the period from 10:00 am to 12:00 am. The blood obtained by the operation was set aside for 1 hour at room temperature and subsequently at 4° C. for a period in the range of 1 to 2 hours. Thereafter, blood serum was separated by means of centrifugation at 2500 rpm at 4° C. for 10 minutes. Fractions of various lipoproteins were separated from the blood serum obtained at the time of whole blood extraction. […] Therefore, it is not possible with step-wise density gradient ultracentrifugation employed for this experiment to exclusively separate native LDL, and the LDL fraction separated in this stage contains HDL1 that existed together with LDL. The cholesterol, phospholipid, and triglyceride contents in the serum and each lipoprotein fraction were enzymatically measured with commercial kits (Cholesterol E-Test Wako, Phospholipid C-Test Wako, and Triglyceride E-Test Wako; products of Wako Pure Chemical Industries, Ltd.), respectively.

human salivary α-amylase = biological target: T1, human salivary α-amylase (Homo sapiens, UniProt P0DUB6); test: Inhibitory activity on human salivary α-amylase; type: biochemical; details: three reaction systems, FIGS. 1 through 6
T1 construct: α-amylase (from human saliva: product of Lee Scientific, Inc.); purchased Lee Scientific, Inc; host or cells: human saliva
T1 sequence (P0DUB6 16-511): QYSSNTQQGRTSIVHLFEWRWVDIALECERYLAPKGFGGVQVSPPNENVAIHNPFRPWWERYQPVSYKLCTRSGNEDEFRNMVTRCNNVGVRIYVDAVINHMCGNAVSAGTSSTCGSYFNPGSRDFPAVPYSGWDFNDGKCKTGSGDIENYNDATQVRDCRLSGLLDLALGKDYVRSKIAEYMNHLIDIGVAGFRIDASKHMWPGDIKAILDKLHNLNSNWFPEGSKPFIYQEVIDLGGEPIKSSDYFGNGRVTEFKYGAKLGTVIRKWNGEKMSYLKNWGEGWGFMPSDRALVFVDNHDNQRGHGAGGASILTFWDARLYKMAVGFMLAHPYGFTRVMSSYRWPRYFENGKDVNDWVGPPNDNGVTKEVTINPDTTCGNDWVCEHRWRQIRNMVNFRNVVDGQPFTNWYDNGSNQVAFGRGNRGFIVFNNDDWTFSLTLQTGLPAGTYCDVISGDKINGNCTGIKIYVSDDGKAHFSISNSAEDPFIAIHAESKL

KK-Ay mice = details: model of Type 2 diabetes, Biol. Pharm. Bull. 1998; cited from earlier work
[4] = test system: α-glucosidase fraction obtained from rat intestinal tracts; test: Inhibitory activity on α-glucosidase; type: biochemical; details: determined by Department of Hygiene, Kinki University School of Medicine
[5] = versus control-diet OLETF rats, FIG. 14
[6] = versus control-diet OLETF rats, FIG. 15

| Structure (SMILES) | Triglyceride content in whole liver [1] | Change in body weight ([2]; FIG. 11, Acarbose from the 6th day) | Change in food intake ([2]; FIG. 12) | HDL ([3]; OLETF rats, distribution of lipids in serum lipoprotein) | Cholesterol contents in VLDL and LDL serum lipoprotein fractions ([3]; versus control-diet OLETF rats, FIG. 13) | Phospholipid contents in HDL fraction [3, 5] | Phospholipid contents in VLDL and LDL serum lipoprotein fractions [3, 5] | Triglyceride contents in HDL fraction [3, 6] | Triglyceride contents in VLDL and LDL serum lipoprotein fractions [3, 6] | Inhibitory activity on α-amylase (human salivary α-amylase) | Blood sugar levels and insulin sensitivity (KK-Ay mice) | In vitro α-glucosidase inhibitory activity (ID50) relative to that of Acarbose [4] |
| --- | --- | --- | --- | --- | --- | --- | --- | --- | --- | --- | --- | --- |
| C[C@H]1O[C@H](O[C@H]2[C@H](O)[C@@H](O)[C@@H](O[C@H]3[C@H](O)[C@@H](O)C(O)O[C@@H]3CO)O[C@@H]2CO)[C@H](O)[C@@H](O)[C@@H]1N[C@H]1C=C(CO)[C@@H](O)[C@H](O)[C@H]1O (stereo partly drawn) [Acarbose] | lower than those of the OLETF rats | significantly lower weights than did the OLETF rats | significantly lower food intake compared with the OLETF rats until the 12th day; also recorded: remained greater than that by the OLETF rats from the 20th day until the last day of the administration | no significant difference in HDL | significantly lower in both the VLDL fraction and the LDL fraction | lower than those of the OLETF rats | significantly lower in both the VLDL fraction and the LDL fraction | significantly lower than those of the OLETF rats as well as the LETO rats | significantly lower in both the VLDL fraction and the LDL fraction | – | – | – |
| O=c1c2cc(O)c(O)cc2oc2cc(O)c([C@@H]3O[C@H](CO)[C@@H](O)[C@H](O)[C@H]3O)c(O)c12 [Mangiferin] | – | – | – | – | – | – | – | – | – | have the function of inhibiting enzyme activities | has a function of reducing blood sugar levels and increasing insulin sensitivity | approximately 1/100 |

— patent US20060051436A1, “Composition for controlling excessive calorie intake-induced disorder, food product for controlling excessive calorie intake-induced disorder, skin preparation for external use for controlling excessive calorie intake-induced disorder, and controlling agent for excessive calorie intake-induced …” (Towa Corporation Kabushiki Kaisha, priority 2004, published 2006)
